This is one part of the list. Shown are side measurements of this screen, not its main read-out; they come without a call. The list favours compounds with an active or inconclusive main result. The note in brackets gives the kind of curve behind each potency; many fits are weak.
Assay: qHTS Assay for Lipid Storage Modulators in Drosophila S3 Cells;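 as to cell number change: cells counted by Cell Tracker Red CMTPX staining in the red channel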
Conditions: BODIPY lipid droplet fluorescence, 18-24 h; for cell number change: measured here: cell count max response, cells fed with added oleic acid
Method in brief: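 Laser-scanning cytometry quantifies lipid droplet accumulation (500–530 nm total intensity; droplet/cell object ratio) in oleic acid-fed (400 uM added) Drosophila S3 cells treated with a concentration series. 20 uM Triacsin C defined 100% inhibition.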

[1] = measured here: cell number channel AC50, cells fed with added oleic acid
[2] = measured here: lipid fluorescence (Fed channel) AC50, cells fed with added oleic acid

Row | SMILES | cell number change | AC50 [1] | AC50 [2]
1 | Cc1nn(C)c(C)c1CN(C)S(=O)(=O)c1ccc2ccccc2c1 | -35% | 10.3 µM [falling, partial curve, poor fit] | 8.2 µM [falling, partial curve]
2 | COC(=O)c1ccc(NS(=O)(=O)c2ccc3[nH]c(=O)oc3c2)cc1 | 4.78% | – | 18.4 µM [rising, partial curve]
3 | CCN(CC)Cc1ccccc1CNC(=O)c1cccc(S(=O)(=O)Nc2ccc3c(c2)OCO3)c1 | -14.2% | – | –
4 | COC(=O)CCS(=O)(=O)c1nc(-c2ccccc2)cc(C(F)(F)F)n1 | -87.8% | 18.4 µM [falling, single point] | 3.26 µM [falling, partial curve]
5 | Cc1[nH]c(=O)[nH]c(=O)c1S(=O)(=O)N1CCC(C(=O)NC(C)c2ccccc2)CC1 (centres undefined) | -21.5% | – | 1.64 µM [falling, full curve, poor fit]
6 | C/C(=N\NC(=O)c1cccc2ccccc12)c1ccccn1 | -36.2% | 4.11 µM [falling, partial curve] | 29.1 µM [falling, single point]
7 | O=C(c1ccc(-c2nc3ccccc3s2)s1)N1CCOCC1 | – | 0.731 µM [rising, single point] | –
8 | COc1ccc(S(=O)(=O)N(C(=O)C(C)C)c2ccc3oc(=O)sc3c2)cc1 | -53.1% | 14.6 µM [falling, single point] | 29.1 µM [falling, single point]
9 | O=C(COc1cc2oc(=O)c3c(c2cc1Cl)CCC3)NCCCN1CCCC1=O | 11.1% | – | –
10 | COc1cc(/C=N/N(c2ccccc2)c2ccccc2)ccc1O | -81.3% | 16.4 µM [falling, single point] | –
11 | CCN(CC)S(=O)(=O)c1ccc(NC(=O)CCNC(=O)c2ccccc2)cc1 | 6.83% | – | 4.61 µM [rising, single point]
12 | CS(=O)(=O)N1CCc2cc(C(=O)OCC(=O)c3ccccc3)ccc21 | -0.556% | – | –
13 | O=C1CCC(C(=O)N2CCN(c3ccc(F)cc3)CC2)CN1CC1CCCCC1 (centres undefined) | 29.4% | 2.31 µM [rising, full curve, poor fit] | –
14 | COc1ccc(Cl)c(Cn2c(NCCCN(C)C)nc3c2c(=O)n(C)c(=O)n3C)c1 | 9.46% | – | 3.26 µM [rising, partial curve, poor fit]
15 | COc1ccc(NC(=O)CCS(=O)(=O)c2cccc3nonc23)cc1 | 108% | 29.1 µM [rising, single point] | 20.6 µM [rising, partial curve]
16 | COc1ccc(C(=O)NCCc2nnc3ccc(SCC(=O)Nc4ccccc4)nn23)cc1 | -1.62% | – | 29.1 µM [falling, single point]
17 | CC(C)(C)c1ccc(S(=O)(=O)NCC(=O)Nc2sc3c(c2C(N)=O)CCCC3)cc1 | -5.71% | – | –
18 | Oc1ccc2ccccc2c1CNc1ccccn1 | -7.8% | – | 6.51 µM [rising, single point]
19 | Cc1cccc(C)c1NC(=O)C1CCCN1C(=O)Nc1cccc(F)c1 (centres undefined) | 9.46% | – | –
20 | C=CCn1c(SCC(=O)N2CCN(C(=O)c3ccco3)CC2)nc2sc(CC)cc2c1=O | -9.03% | – | 0.13 µM [rising, full curve, poor fit]

Row | SMILES | cell number change | AC50 [1] | AC50 [2]
21 | CC(OC(=O)c1ccc(C(C)(C)C)cc1)C(=O)NC1CCCCC1C (centres undefined) | 0.0367% | 4.61 µM [rising, single point] | 20.6 µM [falling, single point]
22 | CCOC(=O)C(=O)NCC(c1cccs1)S(=O)(=O)c1ccc(C)cc1 (centres undefined) | -3.85% | – | 0.116 µM [rising, full curve, poor fit]
23 | CCN(CC(=O)NCc1cccs1)C(=O)c1cccc(S(=O)(=O)NC)c1 | -8.84% | – | –
24 | O=C(/C=C/c1c(Cl)cccc1Cl)N1CCN(c2ncccn2)CC1 | 36.4% | 4.11 µM [rising, full curve] | –
25 | CC(=O)c1cccc(NS(=O)(=O)c2ccc3c(c2)N(C(C)=O)CCO3)c1 | -5.7% | – | –
26 | O=C(CSc1nc(Nc2ccccc2)nc(N2CCOCC2)n1)Nc1ccc([N+](=O)[O-])cc1 | -12% | 0.259 µM [rising, partial curve, poor fit] | 0.651 µM [rising, full curve]
27 | O=C(N/N=C/c1ccc(N2CCCCC2)o1)c1ccccc1 | -35.7% | 29.1 µM [falling, single point] | 25.9 µM [falling, single point]
28 | Cc1sc2ncn(CC(=O)N3CCN(c4ccc(F)cc4)CC3)c(=O)c2c1S(=O)(=O)N1CCOCC1 | 0.833% | – | 0.411 µM [falling, partial curve]
29 | CC(C)c1ccc(NC(=O)NCc2cccnc2)cc1 | 16% | – | 10 µM [rising, partial curve, poor fit]
30 | COc1cccc(NC(=O)NCCCN2CCN(c3ccc(F)cc3)CC2)c1 | -3.21% | – | –
31 | COc1ccc(C(O)(c2ccccc2OC)C(CN2CCOCC2)c2ccccc2)cc1 (centres undefined) | 15.6% | 0.103 µM [falling, full curve, poor fit] | 0.13 µM [falling, full curve, poor fit]
32 | CC(C)(C)c1nnc(NC(=O)c2cccnc2)s1 | 84.6% | – | 0.00461 µM [falling, full curve, poor fit]
33 | Cc1ccc(C(=O)NC(=S)NNC(=O)CCN2CCOCC2)cc1 | -2.71% | – | –
34 | COc1ccc(S(=O)(=O)N2CCCCCC2)cc1NC(=O)CC1OC(=O)c2ccccc21 (centres undefined) | 65.9% | 4.61 µM [rising, partial curve] | –
35 | O=C(O)CSCNC(=O)CC12CC3CC(CC(C3)C1)C2 | -17.5% | – | –
36 | CCc1nn(CC(=O)NC(C)CCc2ccccc2)c(=O)c2cc3occc3n12 (centres undefined) | -0.885% | – | 11.6 µM [falling, single point]
37 | COc1ccc2c(c1OC)C(=O)N1C(C(=O)O)Cc3c([nH]c4ccccc34)C21 (centres undefined) | 34.3% | 5.8 µM [rising, full curve] | 6.51 µM [rising, single point]
38 | CCN1C(=O)[C@H]2[C@@H](c3ccc(-c4ccc5c(c4)OCO5)c(OC)c3)N[C@@](Cc3ccccc3)(C(=O)OC)[C@H]2C1=O | -24.3% | – | –
39 | Cc1ccc(-c2nc(C3CCN(S(=O)(=O)c4ccc(C(C)(C)C)cc4)CC3)no2)cc1 | -49.4% | 5.17 µM [falling, single point] | 29.1 µM [falling, single point]
40 | O=C1NC(=O)c2cc(Br)cc3cccc1c23 | -1.08% | – | –

Row | SMILES | cell number change | AC50 [1] | AC50 [2]
41 | Cc1cc(=O)oc2c3c(cc(OCC(=O)NC4CC4)c12)OC(C)(C)CC3 | 0.971% | – | 20.6 µM [falling, single point]
42 | O=C(Nc1ccc(-c2nc3ccccc3s2)cc1)c1cc(-n2cnnc2)ccc1Cl | -55.8% | 29.1 µM [falling, single point] | 18.4 µM [falling, single point]
43 | CCC(C)Sc1nnc(CSc2nc(C)cc(C)n2)n1C (centres undefined) | -7.29% | – | –
44 | COc1cccc(N2CC(NC(=O)c3ccc4ccccc4c3)CC2=O)c1 (centres undefined) | – | – | 16.4 µM [rising, partial curve]
45 | Nc1c(C(=O)CSc2ncccn2)c(=O)[nH]c(=O)n1C1CC1 | -19.8% | – | 2.31 µM [falling, full curve, poor fit]
46 | CN(C)c1ccc(NC(=O)CSc2nnc(-c3cccs3)n2Cc2ccco2)cc1 | – | 1.84 µM [rising, partial curve] | 2.31 µM [rising, partial curve]
47 | CCCn1c(=O)c2ccccc2n2c(SCc3nc4ccccc4s3)nnc12 | -1.69% | – | 0.461 µM [rising, full curve]
48 | COCCCNC(=O)Cn1cc(/C=C(\C#N)C(=O)NC2CCCC2)c2ccccc21 | 2.55% | – | 29.1 µM [falling, single point]
49 | CC(C)CC1NC(=O)N(CC(=O)N2CCN(S(=O)(=O)c3ccc4ccccc4c3)CC2)C1=O (centres undefined) | 42.6% | – | –
50 | O=C(CN1C(=O)/C(=C/c2ccc(C(F)(F)F)cc2)Sc2ccccc21)NCCCN1CCOCC1 | -4.28% | – | 1.64 µM [rising, partial curve]
51 | Cc1ccccc1C(=O)c1c[nH]c(C(=O)NCCCn2ccnc2)c1 | 31.4% | 32.6 µM [rising, single point] | –
52 | COc1ccc(-c2noc(CCC(=O)NC3CCN(Cc4ccccc4)CC3)n2)cc1 | -16.6% | – | 29.1 µM [falling, single point]
53 | c1ccc(-c2cc(-c3nnc4sc(-c5ccccn5)nn34)[nH]n2)cc1 | -31.8% | 6.51 µM [falling, partial curve] | 16.4 µM [falling, single point]
54 | CC(C)n1nnnc1SCC(=O)N1CCOCC1 | -80.8% | 25.9 µM [falling, partial curve] | 3.26 µM [falling, full curve]
55 | O=C(COc1ccccc1Br)c1ccc(O)cc1O | -17.5% | – | 6.51 µM [rising, single point]
56 | CC(=O)c1c(C)[nH]c(C(=O)COC(=O)CNS(=O)(=O)c2ccccc2)c1C | 11.5% | – | 18.4 µM [rising, single point]
57 | COc1ccc(CN(C(=O)COc2ccccc2)c2ccccc2C(=O)O)cc1 | -24.1% | 2.31 µM [falling, partial curve, poor fit] | –
58 | Cc1cc(F)ccc1S(=O)(=O)N1CCCOC1CNC(=O)C(=O)NCCN1CCOCC1 (centres undefined) | 10.4% | – | 23.1 µM [rising, partial curve]

Complete entries from above.
`COc1ccc(CN(C(=O)COc2ccccc2)c2ccccc2C(=O)O)cc1` in the list: cell number change: -24.1%; AC50 [1]: 2.31 µM [falling, partial curve, poor fit]
`CC(=O)c1c(C)[nH]c(C(=O)COC(=O)CNS(=O)(=O)c2ccccc2)c1C` in the list: cell number change: 11.5%; AC50 [2]: 18.4 µM [rising, single point]
`CCCn1c(=O)c2ccccc2n2c(SCc3nc4ccccc4s3)nnc12` in the list: cell number change: -1.69%; AC50 [2]: 0.461 µM [rising, full curve]
`Cc1cc(F)ccc1S(=O)(=O)N1CCCOC1CNC(=O)C(=O)NCCN1CCOCC1` (centres undefined) in the list: cell number change: 10.4%; AC50 [2]: 23.1 µM [rising, partial curve]

— PubChem BioAssay AID2685 (National Center for Advancing Translational Sciences (NCATS), 2010)
